PubChem BioAssay AID1508597 | Cure First, 2020

Screen: 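Survival screen with siRNA in ovarian cancer cells derived from patients, with or without rucaparib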 (primary screen)
Cells: human ovarian carcinoma lines grown from tumours: OCI-P5x (papillary serous) and OCI-C5x (clear cell)
Reagent: siRNA pool against human genes, 1.25 pmol siRNA per well
Time to read-out: 72 h or 96 h, depending on the cell culture
Challenge: rucaparib 20 µM (about IC30) or vehicle, present until read-out
Read-out: 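Luminescent ATP-based viability assay read 72 or 96 h after transfection, depending on culture, given as normalised percent viability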
Reading the numbers: viability, normalised: higher = more viable cells remaining
Hit rule: 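a well counts as a hit if its normalised viability is under 80 percent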
Calls: active = viability under 80%; inactive = viability 80% or more
The whole screen tested about 2,100 reagents; below is a random part of them. 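Calls flag viability under 80% in either arm, not effects specific to rucaparib; the reference for percent is not stated.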 Entries without a mark were called inactive. A reagent listed more than once was tested more than once; the source does not tell the runs apart. The record does not give: the 100% reference.

no.	gene knocked down	rucaparib or vehicle	cell line	technical replicate	viability, normalised (%)
1	DDB2	Rucaparib	OCI-C5x (clear cell)	1	60.4 (active)
2	DDB2	Rucaparib	OCI-C5x (clear cell)	1	48.9 (active)
3	DDB2	Rucaparib	OCI-C5x (clear cell)	1	53.1 (active)
4	DDB2	Rucaparib	OCI-C5x (clear cell)	2	44.2 (active)
5	DDB2	Rucaparib	OCI-C5x (clear cell)	2	55.4 (active)
6	DDB2	Rucaparib	OCI-C5x (clear cell)	2	55.9 (active)
7	DDB2	Rucaparib	OCI-C5x (clear cell)	3	39.3 (active)
8	DDB2	Rucaparib	OCI-C5x (clear cell)	3	65.1 (active)
9	DDB2	Rucaparib	OCI-C5x (clear cell)	3	59.8 (active)
10	DDB2	Rucaparib	OCI-P5x (serous)	1	44.2 (active)
11	DDB2	Rucaparib	OCI-P5x (serous)	1	68.2 (active)
12	DDB2	Rucaparib	OCI-P5x (serous)	1	71.1 (active)
13	DDB2	Rucaparib	OCI-P5x (serous)	2	57.6 (active)
14	DDB2	Rucaparib	OCI-P5x (serous)	2	67.4 (active)
15	DDB2	Rucaparib	OCI-P5x (serous)	2	58.7 (active)
16	DDB2	Rucaparib	OCI-P5x (serous)	3	66.2 (active)
17	DDB2	Rucaparib	OCI-P5x (serous)	3	62.2 (active)
18	DDB2	Rucaparib	OCI-P5x (serous)	3	82.1
19	DDB2	Vehicle	OCI-C5x (clear cell)	1	49.3 (active)
20	DDB2	Vehicle	OCI-C5x (clear cell)	1	96.6
21	DDB2	Vehicle	OCI-C5x (clear cell)	1	33.9 (active)
22	DDB2	Vehicle	OCI-C5x (clear cell)	2	31.2 (active)
23	DDB2	Vehicle	OCI-C5x (clear cell)	2	64.2 (active)
24	DDB2	Vehicle	OCI-C5x (clear cell)	2	63 (active)
25	DDB2	Vehicle	OCI-C5x (clear cell)	3	48.4 (active)
26	DDB2	Vehicle	OCI-C5x (clear cell)	3	39.5 (active)
27	DDB2	Vehicle	OCI-C5x (clear cell)	3	52 (active)
28	DDB2	Vehicle	OCI-P5x (serous)	1	57 (active)
29	DDB2	Vehicle	OCI-P5x (serous)	1	62.1 (active)
30	DDB2	Vehicle	OCI-P5x (serous)	1	89.3
31	DDB2	Vehicle	OCI-P5x (serous)	2	72.6 (active)
32	DDB2	Vehicle	OCI-P5x (serous)	2	61.7 (active)
33	DDB2	Vehicle	OCI-P5x (serous)	2	71.5 (active)
34	DDB2	Vehicle	OCI-P5x (serous)	3	89.7
35	DDB2	Vehicle	OCI-P5x (serous)	3	62.8 (active)
36	DDB2	Vehicle	OCI-P5x (serous)	3	61 (active)
37	KAT6B	Rucaparib	OCI-C5x (clear cell)	1	30.6 (active)
38	KAT6B	Rucaparib	OCI-C5x (clear cell)	2	33.7 (active)
39	KAT6B	Rucaparib	OCI-C5x (clear cell)	3	34.2 (active)
40	KAT6B	Rucaparib	OCI-P5x (serous)	1	49.3 (active)
41	KAT6B	Rucaparib	OCI-P5x (serous)	2	57.6 (active)
42	KAT6B	Rucaparib	OCI-P5x (serous)	3	59.7 (active)
43	KAT6B	Vehicle	OCI-C5x (clear cell)	1	31.9 (active)
44	KAT6B	Vehicle	OCI-C5x (clear cell)	2	29.6 (active)
45	KAT6B	Vehicle	OCI-C5x (clear cell)	3	45.5 (active)
46	KAT6B	Vehicle	OCI-P5x (serous)	1	48.2 (active)
47	KAT6B	Vehicle	OCI-P5x (serous)	2	58 (active)
48	KAT6B	Vehicle	OCI-P5x (serous)	3	67.1 (active)
49	H1-9P	Rucaparib	OCI-C5x (clear cell)	1	40.7 (active)
50	H1-9P	Rucaparib	OCI-C5x (clear cell)	2	31.3 (active)
51	H1-9P	Rucaparib	OCI-C5x (clear cell)	3	38.1 (active)
52	H1-9P	Rucaparib	OCI-P5x (serous)	1	38.9 (active)
53	H1-9P	Rucaparib	OCI-P5x (serous)	2	35.3 (active)
54	H1-9P	Rucaparib	OCI-P5x (serous)	3	39.9 (active)
55	H1-9P	Vehicle	OCI-C5x (clear cell)	1	45.4 (active)
56	H1-9P	Vehicle	OCI-C5x (clear cell)	2	51.5 (active)
57	H1-9P	Vehicle	OCI-C5x (clear cell)	3	40.8 (active)
58	H1-9P	Vehicle	OCI-P5x (serous)	1	48.1 (active)
59	H1-9P	Vehicle	OCI-P5x (serous)	2	62.6 (active)
60	H1-9P	Vehicle	OCI-P5x (serous)	3	66.4 (active)

A few values from the list.
Under “viability, normalised (%)”, H1-9P, rucaparib or vehicle Vehicle, cell line OCI-P5x (serous), technical replicate 3 shows 66.4 (active)
Entry for H1-9P, rucaparib or vehicle Rucaparib, cell line OCI-C5x (clear cell), technical replicate 3 under “viability, normalised (%)”: 38.1 (active)
For “viability, normalised (%)”, KAT6B, rucaparib or vehicle Rucaparib, cell line OCI-C5x (clear cell), technical replicate 3 has 34.2 (active)
Under “viability, normalised (%)”, KAT6B, rucaparib or vehicle Vehicle, cell line OCI-C5x (clear cell), technical replicate 2 shows 29.6 (active)
Entry of KAT6B, rucaparib or vehicle Rucaparib, cell line OCI-C5x (clear cell), technical replicate 2 in “viability, normalised (%)”: 33.7 (active)
Result of H1-9P, rucaparib or vehicle Vehicle, cell line OCI-C5x (clear cell), technical replicate 1 in “viability, normalised (%)”: 45.4 (active)
